This note sets out measurements from the supplement of paper PMC10735217.

Structures can show the parent of a compound that is named as a salt. The list shows a part of the results. This data set is noisy: repeats of one test often differ as much as different tests do.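 In a drug-repurposing library screen, luminescence reads luciferase driven by eight TEAD-binding elements, stably integrated into human kidney-derived cells. Compounds scoring over five robust Z scores above the plate mean are called hits.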

The experiment has as its system HEK293A TEAD-LUC reporter. In words: TEAD-luciferase reporter activity (YAP activation), robust Z score vs plate; higher = stronger YAP/TEAD activation. Conditions: 24 h. (In general: Reporter assays use an easily measured gene product as a stand-in for the process of interest.)

On to `C[C@@H](NCCCc1cccc(C(F)(F)F)c1)c1cccc2ccccc12` [cinacalcet hydrochloride], for which the TEAD-luciferase reporter activity (compound concentration: 200 nM) is inactive: -1.82, the TEAD-luciferase reporter activity (compound concentration: 2 uM) was inactive: -0.602 and the TEAD-luciferase reporter activity (compound concentration: 10 uM) was inactive: -3.61.
Take `CCOC(=O)CN1CCN(C(=O)/C=C/c2cc(OC)c(OC)c(OC)c2)CC1` [cinepazet]: the TEAD-luciferase reporter activity is inactive: -1.72 (compound concentration: 200 nM), inactive: 0.78 (compound concentration: 2 uM) and inactive: 3.43 (compound concentration: 10 uM).
Regarding `CCCCc1c(Cc2ccc(-c3ccccc3-c3nnn[nH]3)cc2)c(O)nc2ncnn12`, the TEAD-luciferase reporter activity was inactive: -0.738 (compound concentration: 200 nM), inactive: 1.48 (compound concentration: 2 uM) and inactive: 0.314 (compound concentration: 10 uM).
As for `CC1=C2N=C(C=C3N=C(C(C)=C4[C@@H](CCC(N)=O)[C@](C)(CC(N)=O)[C@](C)(C5N=C1[C@](C)(CCC(=O)NCC(C)OP(=O)([O-])OC1C(CO)OC(n6cnc7cc(C)c(C)cc76)C1O)[C@H]5CC(N)=O)[N]4[Co][OH])[C@@](C)(CC(N)=O)[C@@H]3CCC(N)=O)C(C)(C)[C@@H]2CCC(N)=O` (stereo not given in full), the TEAD-luciferase reporter activity is inactive: 0.261 (compound concentration: 200 nM), inactive: 1.62 (compound concentration: 2 uM) and inactive: -0.191 (compound concentration: 10 uM).
Take `COc1cc(/N=N/c2c(S(=O)(=O)[O-])cc3cc(S(=O)(=O)[O-])cc(NC(=O)c4cccc(Cl)c4Cl)c3c2O)c(OC)cc1/N=N/c1c(S(=O)(=O)[O-])cc2cc(S(=O)(=O)[O-])cc(NC(=O)c3ccc(Cl)cc3Cl)c2c1O`: the TEAD-luciferase reporter activity is inactive: 1.14 (compound concentration: 200 nM), inactive: -0.897 (compound concentration: 2 uM) and inactive: -0.0646 (compound concentration: 10 uM).
On to `CC(C)(C)CN1CCCC12Cc1ccccc1CNC2=O` (stereo not given), for which the TEAD-luciferase reporter activity is inactive: 1.37 (compound concentration: 200 nM) and inactive: -1.69 (compound concentration: 10 uM).
As to `Nc1ccc(F)cc1NC(=O)c1ccc(CNC(=O)/C=C/c2cccnc2)cc1`, the TEAD-luciferase reporter activity was inactive: 2.34 (compound concentration: 200 nM) and active: 25.2 (compound concentration: 10 uM).
With `Nc1ccc(F)cc1NC(=O)c1ccc(CNC(=O)/C=C/c2cccnc2)cc1` [Chidamide], the TEAD-luciferase reporter activity (compound concentration: 2 uM) was active: 16.1.
Consider `CN(C)CCCSc1ccccc1NC(=O)/C=C/c1ccccc1` [Cinanserin], for which the TEAD-luciferase reporter activity was inactive: -1.7 (compound concentration: 200 nM) and inactive: -0.889 (compound concentration: 10 uM).
Turning to `CN(C)CCCSc1ccccc1NC(=O)/C=C/c1ccccc1`, the TEAD-luciferase reporter activity (compound concentration: 2 uM) is inactive: -2.63.
As to `COC1CCN(C(=O)c2cc(C=C3NNC(=O)c4ccccc43)ccc2F)CC1`, the TEAD-luciferase reporter activity runs as follows: (compound concentration: 200 nM) inactive: -1.41; (compound concentration: 2 uM) inactive: 1.6; (compound concentration: 10 uM) inactive: -1.35.
Take `C[C@]12CC[C@H](O)CC1=CC[C@@H]1[C@@H]2CC[C@]2(C)C(n3cnc4ccccc43)=CC[C@@H]12` [galeterone]: the TEAD-luciferase reporter activity runs as follows: (compound concentration: 200 nM) inactive: 3.66; (compound concentration: 2 uM) inactive: 0.802; (compound concentration: 10 uM) inactive: -0.519.
The corresponding values for `Cc1ccc(C(=O)OCc2ccc(C(CN)C(=O)Nc3ccc4cnccc4c3)cc2)c(C)c1` (stereo not given) are inactive: -0.474, inactive: 0.686 and inactive: 0.738.
Turning to `CCCC[C@H](NC(=O)[C@H](CCCC)NC(=O)[C@H](CCCC)NC(=O)[C@H](CCCNC(=N)N)NC(=O)[C@H](CCCC)NC(=O)[C@H](CCCC)NC(=O)[C@H](CCCC)NC(=O)[C@@H](N)CCCNC(=N)N)C(=O)NCC(=O)N[C@@H](Cc1ccc(O)cc1)C(N)=O`, the TEAD-luciferase reporter activity (compound concentration: 200 nM) was inactive: 0.00725, the TEAD-luciferase reporter activity (compound concentration: 2 uM) was inactive: 1.13 and the TEAD-luciferase reporter activity (compound concentration: 10 uM) is inactive: 1.11.
In the case of `CNS(=O)(=O)CC1CCC(N(C)c2ncnc3[nH]ccc23)CC1` (stereo not given) [Oclacitinib], the TEAD-luciferase reporter activity reads like this: (compound concentration: 200 nM) inactive: 1.18; (compound concentration: 2 uM) inactive: 1.66; (compound concentration: 10 uM) inactive: 0.26.
With `COC(=O)C1CSC(c2ncccc2O)=N1` (stereo not given), the TEAD-luciferase reporter activity by setting is: (compound concentration: 200 nM) inactive: -0.631; (compound concentration: 2 uM) inactive: 0.401; (compound concentration: 10 uM) inactive: -0.191.
As to `CC[C@H](CC#N)OC(=O)N[C@@H](C)c1cccc(NC(=O)Nc2ccc(-c3cnco3)c(OC)c2)c1`, the TEAD-luciferase reporter activity was inactive: -0.849 (compound concentration: 200 nM), inactive: -0.81 (compound concentration: 2 uM) and inactive: 1.12 (compound concentration: 10 uM).
In the case of `COc1ccc(C(C)(C)C)cc1[C@](O)(c1ccccc1OCC(N)=O)[C@@H](C)N(C)C`, the TEAD-luciferase reporter activity is inactive: 0.217 (compound concentration: 200 nM), inactive: -0.224 (compound concentration: 2 uM) and inactive: 0.626 (compound concentration: 10 uM).
For the molecule `CCN1CCC(Oc2c(C#N)ncc3[nH]c4ncccc4c23)CC1`, the TEAD-luciferase reporter activity is, setting by setting: (compound concentration: 200 nM) inactive: -1.01; (compound concentration: 2 uM) inactive: -0.792; (compound concentration: 10 uM) inactive: 2.09.
The like results for `CCCCCCCCCCCCOS(=O)(=O)[O-]` [Sodium lauryl sulfate] were, in that order, inactive: 0.854, inactive: -0.681 and inactive: -0.222.
The corresponding values for `CN(C)c1cccc(F)c1C(=O)NC(=O)Nc1ccc(Cl)cc1` [Clanfenur (INN)] are inactive: -1.3, inactive: -0.254 and inactive: 0.101.
With `O=C(Nc1ccc(C2CCN([C@H](C(=O)O)c3ccccc3)CC2)cc1)c1ccccc1-c1ccc(C(F)(F)F)cc1` [metabolite of Usistapide], the TEAD-luciferase reporter activity (compound concentration: 200 nM) is inactive: 0.0861, the TEAD-luciferase reporter activity (compound concentration: 2 uM) is inactive: -1.84 and the TEAD-luciferase reporter activity (compound concentration: 10 uM) was inactive: 1.32.
As for `CCCCCOc1ccc(-c2ccc(-c3ccc(C(=O)NC4CC(O)C(O)NC(=O)C5C(O)C(C)CN5C(=O)C(C(C)O)NC(=O)C(C(O)C(O)c5ccc(O)cc5)NC(=O)C5CC(O)CN5C(=O)C(C(C)O)NC4=O)cc3)cc2)cc1` (stereo not given) [anidulafungin], the TEAD-luciferase reporter activity is, setting by setting: (compound concentration: 200 nM) inactive: 0.0789; (compound concentration: 2 uM) inactive: -1.23; (compound concentration: 10 uM) inactive: -1.04.
With `CCCCC[C@H](O)/C=C/[C@@H]1[C@H]2C/C=C\CCCC(=O)O[C@H]2C[C@H]1O` [Prostaglandin F2? 1,9-lactone], the TEAD-luciferase reporter activity reads like this: (compound concentration: 200 nM) inactive: -2.05; (compound concentration: 2 uM) inactive: -0.601; (compound concentration: 10 uM) inactive: 0.651.
